Results are given in words; binding and its absence hold for the method and conditions named. In cells and extracts the contact can be indirect. Some binding calls cover weakened binding; strength is not graded here.
B1: Protein S100-A16 (protein, UniProt Q96FQ6 1-103)
chain: MSDCYTELEKAVIVLVENFYKYVSKYSLVKNKISKSSFREMLQKELNHMLSDTGNRKAADKLIQNLDANHDGRISFDEYWTLIGGITGPIAKLIHEQEQQSSS
B2: Protein S100-A16, overexpressed from lentivirus (protein, UniProt Q96FQ6 1-103)
chain: B1 chain

Protein sequences, listed by entry. Tags and fused reporters are not part of them. Residues count along the entry.
UniProt P35579: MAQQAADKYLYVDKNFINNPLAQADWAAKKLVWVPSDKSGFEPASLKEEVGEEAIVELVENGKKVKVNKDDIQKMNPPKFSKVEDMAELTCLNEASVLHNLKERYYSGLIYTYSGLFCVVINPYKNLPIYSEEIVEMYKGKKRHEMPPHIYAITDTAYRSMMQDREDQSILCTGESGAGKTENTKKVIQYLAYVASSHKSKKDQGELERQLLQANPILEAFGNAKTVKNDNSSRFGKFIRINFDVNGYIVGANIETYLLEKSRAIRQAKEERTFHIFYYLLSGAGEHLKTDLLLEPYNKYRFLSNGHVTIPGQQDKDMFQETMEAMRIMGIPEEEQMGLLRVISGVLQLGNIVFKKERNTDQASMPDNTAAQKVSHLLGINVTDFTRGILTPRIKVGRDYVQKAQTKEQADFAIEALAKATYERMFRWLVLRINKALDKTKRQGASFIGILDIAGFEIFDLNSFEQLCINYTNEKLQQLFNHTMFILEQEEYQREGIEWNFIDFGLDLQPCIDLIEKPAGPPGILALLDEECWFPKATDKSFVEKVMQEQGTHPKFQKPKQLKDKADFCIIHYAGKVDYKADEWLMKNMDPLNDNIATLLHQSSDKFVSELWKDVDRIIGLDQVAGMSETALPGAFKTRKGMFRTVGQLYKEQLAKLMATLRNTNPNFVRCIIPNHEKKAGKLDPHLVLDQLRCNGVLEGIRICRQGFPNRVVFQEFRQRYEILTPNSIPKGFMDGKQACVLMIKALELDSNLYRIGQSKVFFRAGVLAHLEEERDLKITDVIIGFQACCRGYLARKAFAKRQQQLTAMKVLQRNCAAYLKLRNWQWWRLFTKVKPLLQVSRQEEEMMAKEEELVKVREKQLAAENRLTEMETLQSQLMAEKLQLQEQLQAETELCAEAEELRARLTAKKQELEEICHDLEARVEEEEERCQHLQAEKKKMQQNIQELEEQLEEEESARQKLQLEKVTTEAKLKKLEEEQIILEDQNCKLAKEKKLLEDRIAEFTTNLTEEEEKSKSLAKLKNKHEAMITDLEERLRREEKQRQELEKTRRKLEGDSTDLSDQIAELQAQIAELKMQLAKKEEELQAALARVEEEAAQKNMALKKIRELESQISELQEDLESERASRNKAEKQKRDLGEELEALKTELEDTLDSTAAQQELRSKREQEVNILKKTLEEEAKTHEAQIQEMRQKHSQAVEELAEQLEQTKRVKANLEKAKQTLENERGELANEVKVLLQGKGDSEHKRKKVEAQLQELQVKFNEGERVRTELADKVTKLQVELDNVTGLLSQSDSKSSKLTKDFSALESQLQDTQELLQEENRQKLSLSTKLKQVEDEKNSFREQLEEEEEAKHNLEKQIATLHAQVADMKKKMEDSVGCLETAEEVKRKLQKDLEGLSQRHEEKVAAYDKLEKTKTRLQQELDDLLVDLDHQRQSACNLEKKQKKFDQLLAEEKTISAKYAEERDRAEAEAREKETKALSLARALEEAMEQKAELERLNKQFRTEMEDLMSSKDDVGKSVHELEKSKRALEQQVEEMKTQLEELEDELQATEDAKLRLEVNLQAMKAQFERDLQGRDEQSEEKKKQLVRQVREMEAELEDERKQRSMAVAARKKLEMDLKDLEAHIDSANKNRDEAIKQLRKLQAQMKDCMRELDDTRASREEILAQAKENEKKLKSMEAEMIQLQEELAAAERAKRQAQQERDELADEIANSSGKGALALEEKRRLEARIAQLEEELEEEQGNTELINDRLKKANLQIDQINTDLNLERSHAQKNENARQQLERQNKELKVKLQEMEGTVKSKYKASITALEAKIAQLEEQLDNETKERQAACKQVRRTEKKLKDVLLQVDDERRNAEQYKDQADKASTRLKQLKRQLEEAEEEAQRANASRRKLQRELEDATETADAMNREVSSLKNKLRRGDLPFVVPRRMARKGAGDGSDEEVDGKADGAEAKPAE
UniProt P11021, residues 19-654: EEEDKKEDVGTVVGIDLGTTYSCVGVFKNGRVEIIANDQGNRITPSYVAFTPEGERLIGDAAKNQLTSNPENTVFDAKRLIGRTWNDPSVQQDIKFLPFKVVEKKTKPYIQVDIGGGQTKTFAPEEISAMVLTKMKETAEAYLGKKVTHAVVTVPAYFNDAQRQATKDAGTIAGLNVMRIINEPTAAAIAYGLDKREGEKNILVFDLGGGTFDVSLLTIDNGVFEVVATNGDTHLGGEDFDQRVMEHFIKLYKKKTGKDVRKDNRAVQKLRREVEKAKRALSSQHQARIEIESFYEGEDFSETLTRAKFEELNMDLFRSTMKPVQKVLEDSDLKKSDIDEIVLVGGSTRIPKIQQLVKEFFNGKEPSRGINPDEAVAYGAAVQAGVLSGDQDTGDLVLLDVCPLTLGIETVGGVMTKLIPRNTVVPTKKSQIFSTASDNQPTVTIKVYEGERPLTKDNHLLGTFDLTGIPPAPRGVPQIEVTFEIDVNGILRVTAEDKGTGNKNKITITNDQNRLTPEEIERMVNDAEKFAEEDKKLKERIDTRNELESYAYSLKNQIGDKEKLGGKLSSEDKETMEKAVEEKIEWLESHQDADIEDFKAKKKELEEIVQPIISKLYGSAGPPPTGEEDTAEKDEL
UniProt P08670: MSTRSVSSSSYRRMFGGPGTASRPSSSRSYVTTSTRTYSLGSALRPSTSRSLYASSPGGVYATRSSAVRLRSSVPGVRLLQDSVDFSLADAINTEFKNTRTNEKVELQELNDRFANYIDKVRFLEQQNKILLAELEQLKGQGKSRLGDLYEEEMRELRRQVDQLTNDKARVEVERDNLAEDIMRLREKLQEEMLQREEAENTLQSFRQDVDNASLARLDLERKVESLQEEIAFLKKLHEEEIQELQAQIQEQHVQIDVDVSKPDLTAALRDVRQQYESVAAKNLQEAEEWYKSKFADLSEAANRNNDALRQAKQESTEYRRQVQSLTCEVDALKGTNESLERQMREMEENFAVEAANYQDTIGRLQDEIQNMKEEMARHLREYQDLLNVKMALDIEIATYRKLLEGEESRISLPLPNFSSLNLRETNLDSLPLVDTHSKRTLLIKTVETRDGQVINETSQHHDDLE

Assays:
[1] = biological target: T1, Protein S100-A16 (human (endogenous in HK-2)) (UniProt Q96FQ6); test: co-IP; HK-2 cells; Supplemental Fig. 2; cells and precipitating antibody not given
T1 sequence: B1 chain

[2] = biological target: T1, Protein S100-A16 (human (endogenous in HK-2)); test: co-IP; lysates of wild type or S100A16-overexpressing HK-2 cells in NP40 lysis buffer (10 mM Tris-HCl pH 7.4, 10 mM NaCl); 0.5 mg protein with anti-S100A16 antibody overnight at 4 °C, protein A beads; blot with anti-Myh9; also after pre-transfection of the cells with anti-Myh9 antibody (Fig. 6a, precipitating antibody not told there)
[3] = biological target: T2, Protein S100-A16, overexpressed from lentivirus (human) (UniProt Q96FQ6); test: as above
T2 sequence: B1 chain

[4] = biological target: Myosin-9 (human (endogenous in HK-2)) (UniProt P35579); test: co-IP; lysates of lenti-scrambled or lenti-S100A16 HK-2 cells in NP40 lysis buffer; IP with anti-Myh9 antibody, protein A beads; blot with anti-S100A16

| Molecule | binding [1] | binding [4] | also measured |
| --- | --- | --- | --- |
| 78 kDa glucose-regulated protein (from UniProt P11021 19-654) | binds | – | – |
| Myosin-9 (from UniProt P35579 1-1960) | – | – | binding [2]: binds; binding [3]: binds |
| Vimentin (from UniProt P08670 1-466) | binds | – | – |
| B1 | – | binds | – |
| B2 | – | binds | – |
